Results reported in the supplement of paper PMC8728848.
The list shows a part of the results.

Columns and labels:
Assay in all cases: glycan array binding signal (z-score within array); higher = stronger binding
Conditions in all cases: glycan notation: IUPAC condensed, linker removed
[1] = target: Gal(b1-4)GlcNAc(b1-2)Man(a1-6)[GlcNAc(b1-2)Man(a1-3)]Man(b1-4)GlcNAc(b1-4)GlcNAc
In short: (§1)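 Negative Z-scores can be read as non-binding. The Z-score is calculated within each array and then averaged across arrays of one protein sequence at different concentrations or buffers and across linkers. Arrays, 3228 in all, were curated from the Consortium for Functional Glycomics database and kept only where the protein sequence was available.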

[2] = target: Gal(b1-4)GlcNAc(b1-2)Man(a1-6)[Man(a1-3)]Man(b1-4)GlcNAc(b1-4)GlcNAc
In short: as §1

[3] = target: Gal(b1-4)GlcNAc(b1-2)[Gal(b1-4)GlcNAc(b1-4)]Man(a1-3)[Gal(b1-4)GlcNAc(b1-2)Man(a1-6)]Man(b1-4)GlcNAc(b1-4)GlcNAc
In short: as §1

[4] = target: Gal(b1-4)GlcNAc(b1-2)[Gal(b1-4)GlcNAc(b1-4)]Man(a1-3)[Gal(b1-4)GlcNAc(b1-2)[Gal(b1-4)GlcNAc(b1-6)]Man(a1-6)]Man(b1-4)GlcNAc(b1-4)GlcNAc
In short: as §1

[5] = target: Gal(b1-4)GlcNAc(b1-2)[Gal(b1-4)GlcNAc(b1-4)]Man(a1-3)[GlcNAc(b1-4)][Gal(b1-4)GlcNAc(b1-2)Man(a1-6)]Man(b1-4)GlcNAc(b1-4)GlcNAc
In short: as §1

[6] = target: Gal(b1-4)GlcNAc(b1-2)[Gal(b1-4)GlcNAc(b1-4)]Man(a1-3)[GlcNAc(b1-4)][Gal(b1-4)GlcNAc(b1-2)[Gal(b1-4)GlcNAc(b1-6)]Man(a1-6)]Man(b1-4)GlcNAc(b1-4)GlcNAc
In short: as §1

[7] = target: Gal(b1-4)GlcNAc(b1-2)[Gal(b1-4)GlcNAc(b1-6)]Man(a1-6)[Gal(b1-4)GlcNAc(b1-2)Man(a1-3)]Man(b1-4)GlcNAc(b1-4)GlcNAc
In short: as §1

[8] = target: Gal(b1-4)GlcNAc(b1-2)[Gal(b1-4)GlcNAc(b1-6)]Man(a1-6)[Gal(b1-4)GlcNAc(b1-2)Man(a1-3)]Man(b1-4)GlcNAc(b1-4)[Fuc(a1-6)]GlcNAc
In short: as §1

[9] = target: Gal(b1-4)GlcNAc(b1-2)[Gal(b1-4)GlcNAc(b1-6)]Man(a1-6)[GlcNAc(b1-4)][Gal(b1-4)GlcNAc(b1-2)Man(a1-3)]Man(b1-4)GlcNAc(b1-4)GlcNAc
In short: as §1

[10] = target: Gal(b1-4)GlcNAc(b1-2)[Gal(b1-4)GlcNAc(b1-6)]Man(a1-6)[GlcNAc(b1-4)][Gal(b1-4)GlcNAc(b1-2)[Gal(b1-4)GlcNAc(b1-4)]Man(a1-3)]Man(b1-4)GlcNAc(b1-4)[Fuc(a1-6)]GlcNAc
In short: as §1

[11] = target: Gal(b1-4)GlcNAc(b1-3)Gal(b1-3)GalNAc
In short: as §1

[12] = target: Gal(b1-4)GlcNAc(b1-3)Gal(b1-3)GlcNAc
In short: as §1

[13] = target: Gal(b1-4)GlcNAc(b1-3)Gal(b1-4)Glc
In short: as §1

[14] = target: Gal(b1-4)GlcNAc(b1-3)Gal(b1-4)GlcNAc
In short: as §1

[15] = target: Gal(b1-4)GlcNAc(b1-3)Gal(b1-4)GlcNAc(b1-2)Man(a1-3)[Gal(b1-4)GlcNAc(b1-3)Gal(b1-4)GlcNAc(b1-2)Man(a1-6)]Man(b1-4)GlcNAc(b1-4)GlcNAc
In short: as §1

[16] = target: Gal(b1-4)GlcNAc(b1-3)Gal(b1-4)GlcNAc(b1-2)Man(a1-3)[Gal(b1-4)GlcNAc(b1-3)Gal(b1-4)GlcNAc(b1-2)Man(a1-6)]Man(b1-4)GlcNAc(b1-4)[Fuc(a1-6)]GlcNAc
In short: as §1

[17] = target: Gal(b1-4)GlcNAc(b1-3)Gal(b1-4)GlcNAc(b1-2)[Gal(b1-4)GlcNAc(b1-3)Gal(b1-4)GlcNAc(b1-6)]Man(a1-6)[Gal(b1-4)GlcNAc(b1-3)Gal(b1-4)GlcNAc(b1-2)Man(a1-3)]Man(b1-4)GlcNAc(b1-4)GlcNAc
In short: as §1

[18] = target: Gal(b1-4)GlcNAc(b1-3)Gal(b1-4)GlcNAc(b1-2)[Gal(b1-4)GlcNAc(b1-3)Gal(b1-4)GlcNAc(b1-6)]Man(a1-6)[Gal(b1-4)GlcNAc(b1-3)Gal(b1-4)GlcNAc(b1-2)Man(a1-3)]Man(b1-4)GlcNAc(b1-4)[Fuc(a1-6)]GlcNAc
In short: as §1

[19] = target: Gal(b1-4)GlcNAc(b1-3)Gal(b1-4)GlcNAc(b1-3)Gal(b1-4)GlcNAc
In short: as §1

[20] = target: Gal(b1-4)GlcNAc(b1-3)Gal(b1-4)GlcNAc(b1-3)Gal(b1-4)GlcNAc(b1-2)Man(a1-3)[Gal(b1-4)GlcNAc(b1-3)Gal(b1-4)GlcNAc(b1-3)Gal(b1-4)GlcNAc(b1-2)Man(a1-6)]Man(b1-4)GlcNAc(b1-4)GlcNAc
In short: as §1

[21] = target: Gal(b1-4)GlcNAc(b1-3)Gal(b1-4)GlcNAc(b1-3)Gal(b1-4)GlcNAc(b1-2)Man(a1-3)[Gal(b1-4)GlcNAc(b1-3)Gal(b1-4)GlcNAc(b1-3)Gal(b1-4)GlcNAc(b1-2)Man(a1-6)]Man(b1-4)GlcNAc(b1-4)[Fuc(a1-6)]GlcNAc
In short: as §1

[22] = target: Gal(b1-4)GlcNAc(b1-3)Gal(b1-4)GlcNAc(b1-3)Gal(b1-4)GlcNAc(b1-2)[Gal(b1-4)GlcNAc(b1-3)Gal(b1-4)GlcNAc(b1-3)Gal(b1-4)GlcNAc(b1-6)]Man(a1-6)[Gal(b1-4)GlcNAc(b1-3)Gal(b1-4)GlcNAc(b1-3)Gal(b1-4)GlcNAc(b1-2)Man(a1-3)]Man(b1-4)GlcNAc(b1-4)[Fuc(a1-6)]GlcNAc
In short: as §1

[23] = target: Gal(b1-4)GlcNAc(b1-3)Gal(b1-4)GlcNAc(b1-3)Gal(b1-4)GlcNAc(b1-3)Gal(b1-4)GlcNAc(b1-2)Man(a1-3)[Gal(b1-4)GlcNAc(b1-3)Gal(b1-4)GlcNAc(b1-3)Gal(b1-4)GlcNAc(b1-3)Gal(b1-4)GlcNAc(b1-2)Man(a1-6)]Man(b1-4)GlcNAc(b1-4)GlcNAc
In short: as §1

[24] = target: Gal(b1-4)GlcNAc(b1-3)Gal(b1-4)GlcNAc(b1-3)Gal(b1-4)GlcNAc(b1-3)Gal(b1-4)GlcNAc(b1-2)Man(a1-3)[Gal(b1-4)GlcNAc(b1-3)Gal(b1-4)GlcNAc(b1-3)Gal(b1-4)GlcNAc(b1-3)Gal(b1-4)GlcNAc(b1-2)Man(a1-6)]Man(b1-4)GlcNAc(b1-4)[Fuc(a1-6)]GlcNAc
In short: as §1

[25] = target: Gal(b1-4)GlcNAc(b1-3)Gal(b1-4)GlcNAc(b1-3)Gal(b1-4)GlcNAc(b1-3)Gal(b1-4)GlcNAc(b1-2)[Gal(b1-4)GlcNAc(b1-3)Gal(b1-4)GlcNAc(b1-3)Gal(b1-4)GlcNAc(b1-3)Gal(b1-4)GlcNAc(b1-6)]Man(a1-6)[Gal(b1-4)GlcNAc(b1-3)Gal(b1-4)GlcNAc(b1-3)Gal(b1-4)GlcNAc(b1-3)Gal(b1-4)GlcNAc(b1-2)Man(a1-3)]Man(b1-4)GlcNAc(b1-4)[Fuc(a1-6)]GlcNAc
In short: as §1

[26] = target: Gal(b1-4)GlcNAc(b1-3)Gal(b1-4)GlcNAc(b1-3)Gal(b1-4)GlcNAc(b1-3)Gal(b1-4)GlcNAc(b1-3)Gal(b1-4)GlcNAc(b1-2)Man(a1-3)[Gal(b1-4)GlcNAc(b1-3)Gal(b1-4)GlcNAc(b1-3)Gal(b1-4)GlcNAc(b1-3)Gal(b1-4)GlcNAc(b1-3)Gal(b1-4)GlcNAc(b1-2)Man(a1-6)]Man(b1-4)GlcNAc(b1-4)GlcNAc
In short: as §1

[27] = target: Gal(b1-4)GlcNAc(b1-3)Gal(b1-4)GlcNAc(b1-3)Gal(b1-4)GlcNAc(b1-3)Gal(b1-4)GlcNAc(b1-3)Gal(b1-4)GlcNAc(b1-2)Man(a1-3)[Gal(b1-4)GlcNAc(b1-3)Gal(b1-4)GlcNAc(b1-3)Gal(b1-4)GlcNAc(b1-3)Gal(b1-4)GlcNAc(b1-3)Gal(b1-4)GlcNAc(b1-2)Man(a1-6)]Man(b1-4)GlcNAc(b1-4)[Fuc(a1-6)]GlcNAc
In short: as §1

[28] = target: Gal(b1-4)GlcNAc(b1-3)Gal(b1-4)GlcNAc(b1-3)Gal(b1-4)GlcNAc(b1-3)Gal(b1-4)GlcNAc(b1-3)Gal(b1-4)GlcNAc(b1-2)[Gal(b1-4)GlcNAc(b1-3)Gal(b1-4)GlcNAc(b1-3)Gal(b1-4)GlcNAc(b1-3)Gal(b1-4)GlcNAc(b1-3)Gal(b1-4)GlcNAc(b1-6)]Man(a1-6)[Gal(b1-4)GlcNAc(b1-3)Gal(b1-4)GlcNAc(b1-3)Gal(b1-4)GlcNAc(b1-3)Gal(b1-4)GlcNAc(b1-3)Gal(b1-4)GlcNAc(b1-2)Man(a1-3)]Man(b1-4)GlcNAc(b1-4)[Fuc(a1-6)]GlcNAc
In short: as §1

[29] = target: Gal(b1-4)GlcNAc(b1-3)Gal(b1-4)GlcNAc(b1-3)Gal(b1-4)GlcNAc(b1-3)Gal(b1-4)GlcNAc(b1-3)Gal(b1-4)GlcNAc(b1-3)Gal(b1-4)GlcNAc(b1-2)Man(a1-3)[Gal(b1-4)GlcNAc(b1-3)Gal(b1-4)GlcNAc(b1-3)Gal(b1-4)GlcNAc(b1-3)Gal(b1-4)GlcNAc(b1-3)Gal(b1-4)GlcNAc(b1-3)Gal(b1-4)GlcNAc(b1-2)Man(a1-6)]Man(b1-4)GlcNAc(b1-4)GlcNAc
In short: as §1

[30] = target: Gal(b1-4)GlcNAc(b1-3)Gal(b1-4)GlcNAc(b1-3)GalNAc
In short: as §1

[31] = target: Gal(b1-4)GlcNAc(b1-3)Gal(b1-4)GlcNAc(b1-3)[Gal(b1-4)GlcNAc(b1-3)Gal(b1-4)GlcNAc(b1-6)]GalNAc
In short: as §1

[32] = target: Gal(b1-4)GlcNAc(b1-3)Gal(b1-4)GlcNAc(b1-6)[Gal(b1-3)]GalNAc
In short: as §1

[33] = target: Gal(b1-4)GlcNAc(b1-3)Gal(b1-4)[Fuc(a1-3)]GlcNAc(b1-3)Gal(b1-4)[Fuc(a1-3)]GlcNAc
In short: as §1

[34] = target: Gal(b1-4)GlcNAc(b1-3)GalNAc
In short: as §1

[35] = target: Gal(b1-4)GlcNAc(b1-3)[Fuc(a1-3)GlcNAc(b1-6)]Gal(b1-4)Glc
In short: as §1

[36] = target: Gal(b1-4)GlcNAc(b1-3)[Gal(b1-4)GlcNAc(b1-6)]Gal(b1-4)GlcNAc
In short: as §1

[37] = target: Gal(b1-4)GlcNAc(b1-3)[GlcNAc(b1-6)]Gal(b1-4)GlcNAc
In short: as §1

B1: Epa8 (Candida glabrata) (protein)
chain: MGSSHHHHHHSSGLVPRGSHMASSRALSDYPLGCSPLLGTKLTPGLSMELYEYPLDNHGIGPHCWDPAYLNPEYPRTGFESHKLIGTAQNVMSLNFEHRTQDCHVEFSNLPASFNFPDQITLTNFTMLLYGYFKPKESGRYRFHMEADDLLLMNLGAGNAFDCCAHEATRNNLGDYIAYDIWAGTRKDVEVFLEKEVFYPLRLFFNNRDGRAALDFSYYLNGATEPGTDIPELLFSLPDGESCPAYI
glycan array binding signal (z-score) [1]: -0.09
glycan array binding signal (z-score) [2]: 1.02
glycan array binding signal (z-score) [3]: -0.48
glycan array binding signal (z-score) [4]: -0.119
glycan array binding signal (z-score) [5]: 0.045
glycan array binding signal (z-score) [6]: -1.43
glycan array binding signal (z-score) [7]: -1.33
glycan array binding signal (z-score) [8]: 0.139
glycan array binding signal (z-score) [9]: 0.057
glycan array binding signal (z-score) [10]: -0.322
glycan array binding signal (z-score) [11]: -1.06
glycan array binding signal (z-score) [12]: -0.498
glycan array binding signal (z-score) [13]: 0.049
glycan array binding signal (z-score) [14]: -0.11
glycan array binding signal (z-score) [15]: 1.19
glycan array binding signal (z-score) [16]: -0.085
glycan array binding signal (z-score) [17]: 1.1
glycan array binding signal (z-score) [18]: 0.741
glycan array binding signal (z-score) [19]: -0.62
glycan array binding signal (z-score) [20]: 1.07
glycan array binding signal (z-score) [21]: 0.507
glycan array binding signal (z-score) [22]: 0.718
glycan array binding signal (z-score) [23]: 0.099
glycan array binding signal (z-score) [24]: 0.578
glycan array binding signal (z-score) [25]: 0.638
glycan array binding signal (z-score) [26]: 0.357
glycan array binding signal (z-score) [27]: 1.2
glycan array binding signal (z-score) [28]: 0.265
glycan array binding signal (z-score) [29]: 1.64
glycan array binding signal (z-score) [30]: 1.13
glycan array binding signal (z-score) [31]: 0.839
glycan array binding signal (z-score) [32]: 0.028
glycan array binding signal (z-score) [33]: -0.452
glycan array binding signal (z-score) [34]: -0.402
glycan array binding signal (z-score) [35]: -0.618
glycan array binding signal (z-score) [36]: 0.149
glycan array binding signal (z-score) [37]: -1.46
